PubChem BioAssay AID540256 (National Center for Advancing Translational Sciences (NCATS), 2011)
In all, about 300,000 compounds went through this assay and about 3,700 (1.2%) were called active. The shares of active, inactive and inconclusive entries below differ from those in the screen. Calls come from the whole dose curve; tested in HEK293 cells. Where the call is inconclusive, the potency comes from a doubtful curve fit.

test: qHTS for Inhibitors of binding or entry into cells for Lassa Virus; conditions: Lassa virus pseudotype entry inhibition, cell reporter; series mostly up to 37.9 µM; note: nearly all actives have a fitted effect of over 50% in size
Potency is the fitted concentration of half-maximal effect.

Which Potency does the source give for `OCCC1CN(Cc2cccn2-c2ncccn2)CCN1Cc1ccccc1` (stereo not given) here?
The Potency was “inactive”.

Which Potency does the source give for `COC(=O)c1ccc(C(=O)OC)c(NC(=S)N2CCCCC2)c1` here?
Its Potency is “inactive”.

For `O=C(O)c1cccc(Nc2ncnc3ccccc23)c1`, which Potency is on record?
Its Potency is “inactive”.

With `O=C(NCc1cccc(C(F)(F)F)c1)c1cccc(S(=O)(=O)N2CCN(Cc3ccccc3)CC2)c1` as the molecule, how does the Potency read?
The Potency was inconclusive: 22.4 µM [inhibitor, single point].

For `COCCCn1cnc2c(c1=O)c1nc3ccccc3nc1n2-c1ccccc1`, which Potency is on record?
Its Potency is “inactive”.

With `CCCOc1ccc(-c2nc(OC)c3ccccc3n2)cc1` as the molecule, how does the Potency read?
The Potency was “inactive”.

Which Potency does the source give for `CCOC(=O)C1CCN(c2cc3c(cc2NC(=O)c2ccc(OC)c(OC)c2)n(C)c(=O)n3C)CC1` here?
Its Potency is inconclusive: 3.55 µM [inhibitor, single point].

With `CCOC(=O)C1=C(C)N=c2s/c(=C\c3ccc(OCC(=O)O)cc3)c(=O)n2C1c1ccccc1` (stereo not given) as the molecule, how does the Potency read?
Its Potency is “inactive”.

For `CC1(C)NC(=O)N(Cc2cc(=O)n3ccsc3n2)C1=O`, which Potency is on record?
The Potency was “inactive”.

With `Cc1ccc(COc2coc(CO)cc2=O)cc1` as the molecule, how does the Potency read?
Its Potency is inconclusive: 29.1 µM [activator, partial curve, poor fit].

Which Potency does the source give for `Cc1ccc(-c2cc(C(=O)NC3=NCCS3)c3ccccc3n2)cc1C` here?
The Potency was inconclusive: 35.5 µM [inhibitor, single point].

For `O=C(NC(c1ccc(Cl)cc1)c1cc(Cl)c2cccnc2c1O)c1cccnc1` (stereo not given), which Potency is on record?
Its Potency is inconclusive: 2.82 µM [inhibitor, partial curve, poor fit].

For `CCCOC(=O)c1cc(=O)[nH]c2ccccc12`, which Potency is on record?
Its Potency is inconclusive: 0.259 µM [activator, single point].

Which Potency does the source give for `COC(=O)Cc1ccc(OCc2ccc(Cl)nc2)cc1` here?
Its Potency is inconclusive: 22.4 µM [inhibitor, single point].

With `CC(=O)Nc1ccc(S(=O)(=O)Nc2nc3ccc([N+](=O)[O-])cc3s2)cc1` as the molecule, how does the Potency read?
Its Potency is “inactive”.

With `O=[N+]([O-])c1ccc(S(=O)(=O)NCCc2cn3ccccc3n2)cc1` as the molecule, how does the Potency read?
The Potency was “inactive”.

For `O=C(CSc1n[nH]c(-c2cccs2)n1)N1CCN(S(=O)(=O)c2ccc3ccccc3c2)CC1`, which Potency is on record?
Its Potency is inconclusive: 11.2 µM [inhibitor, partial curve, poor fit].

With `CCOc1ccc2[nH]c3c(N4CCN(c5ccccn5)CC4)ncnc3c2c1` as the molecule, how does the Potency read?
The Potency was inconclusive: 1.3 µM [inhibitor, full curve, poor fit].

For `CCc1ccc(Sc2cc(C(=O)NCCCOC(C)C)c3ccccc3n2)cc1`, which Potency is on record?
Its Potency is inconclusive: 10 µM [inhibitor, partial curve, poor fit].

With `COC(=O)c1ccccc1NC(=O)CSc1nc(O)c(-c2ccccc2)c(=O)[nH]1` as the molecule, how does the Potency read?
The Potency was inconclusive: 12.6 µM [inhibitor, single point].

For `Cc1cc(C)cc(OCC(=O)Nc2ccc(Cl)c(-c3nc4ncccc4o3)c2)c1`, which Potency is on record?
Its Potency is “inactive”.

Which Potency does the source give for `CCCC(C(=O)Nc1ccc(S(=O)(=O)N2CCCC2)cc1)c1ccccc1` (stereo not given) here?
Its Potency is inconclusive: 11.2 µM [inhibitor, partial curve, poor fit].

With `COc1ccc(NC(=O)Cc2c(F)c(F)c(F)c(F)c2F)cc1OC` as the molecule, how does the Potency read?
Its Potency is “inactive”.

With `Cc1ccc2nc(SCC(=O)NCc3ccccc3)nc(=O)n2c1` as the molecule, how does the Potency read?
Its Potency is “inactive”.

Which Potency does the source give for `Cc1cc(C(=O)Nc2ccc3ccccc3c2)c(C)o1` here?
Its Potency is inconclusive: 2.82 µM [inhibitor, partial curve, poor fit].

With `COc1cccc(-c2csc3nc[nH]c(=O)c23)c1` as the molecule, how does the Potency read?
Its Potency is inconclusive: 3.66 µM [activator, single point].

Which Potency does the source give for `CC(C)Oc1ccc(CNC(=O)c2cnc3sc(N4CCCCC4)nn3c2=O)cc1` here?
Its Potency is inconclusive: 3.55 µM [inhibitor, partial curve, poor fit].

With `N#C/C(=C\c1ccccc1)C(=O)Nc1sc2c(c1C(N)=O)CCC2` as the molecule, how does the Potency read?
The Potency was “inactive”.

With `O=C(Cc1ccsc1)NNC(=O)c1ccccc1O` as the molecule, how does the Potency read?
The Potency was inconclusive: 11.2 µM [inhibitor, partial curve].

Which Potency does the source give for `CCCCOc1ccc(/C=C2/Sc3ccccc3C2=O)cc1` here?
The Potency was inconclusive: 0.891 µM [inhibitor, full curve, poor fit].

With `CC(=O)N/N=C(/C)c1ccc(NC(=O)c2csc(C)c2C)cc1` as the molecule, how does the Potency read?
The Potency was inconclusive: 8.91 µM [inhibitor, partial curve, poor fit].

For `Cn1nnnc1SCCNCc1ccccc1OCc1ccc(Cl)cc1`, which Potency is on record?
Its Potency is inconclusive: 35.5 µM [inhibitor, single point].

Which Potency does the source give for `O=C(O)c1nn(-c2ccc(Cl)cc2)ccc1=O` here?
Its Potency is inconclusive: 25.9 µM [activator, partial curve, poor fit].

Which Potency does the source give for `CCc1ccc(N2CCn3c2nc2c3c(=O)n(Cc3c(F)cccc3Cl)c(=O)n2C)cc1` here?
The Potency was inconclusive: 35.5 µM [inhibitor, single point].

With `COc1ccc2c(ccc[n+]2CC(=O)c2ccc(C)cc2)c1` as the molecule, how does the Potency read?
Its Potency is inconclusive: 20 µM [inhibitor, single point].

For `NNc1nc2ccccc2nc1C(F)(F)F`, which Potency is on record?
Its Potency is “inactive”.

For `O=C(c1cc(C2CC2)nn1-c1ccccc1)N1CCN(c2ccccn2)CC1`, which Potency is on record?
Its Potency is inconclusive: 7.94 µM [inhibitor, partial curve, poor fit].

With `CC[n+]1c(/C=C2\C=C(C)CC(C)(C)C2)sc2ccccc21` as the molecule, how does the Potency read?
The Potency was active: 9.2 µM.

With `O=C(/C=C/c1ccc(F)cc1)NCc1cccs1` as the molecule, how does the Potency read?
Its Potency is inconclusive: 14.1 µM [inhibitor, single point].

Which Potency does the source give for `O=C(c1ccccc1)c1cnc(-c2ccccc2)s1` here?
The Potency was inconclusive: 35.5 µM [inhibitor, single point].

For `COc1ccc(S(=O)(=O)NCc2ccc3c(c2)CCN3C(=O)c2ccc(C)cc2)cc1Cl`, which Potency is on record?
The Potency was inconclusive: 15.8 µM [inhibitor, single point].

Which Potency does the source give for `CCc1nnc(NC(=O)c2oc3ccc(Br)cc3c2C)s1` here?
Its Potency is inconclusive: 1 µM [inhibitor, full curve, poor fit].

With `CCc1nc2c(sc3nc4c(cc32)COC(C)(C)C4)c(=O)n1Cc1ccco1` as the molecule, how does the Potency read?
Its Potency is inconclusive: 10 µM [inhibitor, partial curve, poor fit].

With `Cc1cc(C)cc(-n2ccnc2SCC(=O)Nc2ccc3c(c2)OCO3)c1` as the molecule, how does the Potency read?
Its Potency is “inactive”.

For `Nc1nc(NCc2ccco2)nc(N2CCCCCC2)c1[N+](=O)[O-]`, which Potency is on record?
Its Potency is inconclusive: 14.1 µM [inhibitor, partial curve, poor fit].
